Experimental data published in patent US20260274959A1 (FUJIAN MEDICAL UNIVERSITY, published 2026).
These are yes or no findings as the source states them, for the method shown. Some binding calls cover weakened binding; strength is not graded here.

Tests used:
[1] = target: T1, mouse B7-H4 IgV-like domain protein (from a laboratory of Fujian Medical University) (mouse) (UniProt Q7TSP5); experiment: ELISA, protein coated at 2 µg/mL, antibody at 10 µg/mL
T1 sequence (looked up): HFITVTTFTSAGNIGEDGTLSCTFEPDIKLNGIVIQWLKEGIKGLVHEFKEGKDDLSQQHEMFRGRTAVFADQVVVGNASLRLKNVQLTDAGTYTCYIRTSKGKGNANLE

[2] = target: T2, mouse B7-H4 protein (from a laboratory of Fujian Medical University) (mouse) (UniProt Q7TSP5); experiment: as above
T2 sequence (looked up): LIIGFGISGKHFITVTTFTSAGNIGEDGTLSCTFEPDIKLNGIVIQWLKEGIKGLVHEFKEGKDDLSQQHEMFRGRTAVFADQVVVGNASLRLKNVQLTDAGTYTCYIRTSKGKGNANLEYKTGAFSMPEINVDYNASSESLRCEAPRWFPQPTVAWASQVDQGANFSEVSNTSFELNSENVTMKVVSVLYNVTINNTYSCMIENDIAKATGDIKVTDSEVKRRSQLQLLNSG

- binding [1]: binds
- binding [2]: binds
B1: Npsc-A8 full-length antibody (antibody, V domains shown)
VH: QVQLQESGGGLMQVGGSLRLSCTASGFVFGDYGMNWVRQAPGKGLEWVSLIDTYGASTFYADSVKGRFTISRDNSKQTVFLQMDGLRADDTAMYFCAKPILMFPAFDLWGPGTMVTVSS
VL: DVVMTQSPSSLSASVGDRVTITCRASQGIRNDLAWYQKKPGKAPKRLIYAASSLQSGVPSRFSGSGYGAEFSLTISSLQPEDFATYFCLHHSQYPWTFGQGTKVDIKR
notes: also called Npsc-A8 antibody
